Experimental findings from PubChem BioAssay AID493014 (National Center for Advancing Translational Sciences (NCATS), 2011) are described below.

Some of the results follow. These are further read-outs of the screen, such as a control signal, another cell line or another target. No call is given for them. Compounds called inactive in the main read-out are mostly missing here. Potencies come from curve fits of mixed quality, noted in brackets.

This assay can be described thus: qHTS Assay to Find Inhibitors of Chronic Active B-Cell Receptor Signaling. The settings on record: ABC-DLBCL IkBa-CBG/CBR reporter, luminescence ratio (green luciferase fused to IkBa over red control in TMD8 lymphoma cells), 4 h. A digest of the protocol: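 Compounds up to 46 uM were incubated four hours with TMD8 cells whose green CBG68 luciferase is fused to IkappaBalpha; red CBR luminescence normalised the signal, and concentration-effect curves were fitted to fusion, red and ratio data.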
On the technique in general: qHTS replaces the single test concentration by a dilution series.

Where [1] appears, read: measured here: CBR red luminescence, cell number.
[2] abbreviates: measured here: IkBa-CBG green luminescence.

Usually AC50 stands for the midpoint of the concentration-response curve, whichever way the signal moves.

As to `Cc1ccc(-n2nnnc2SCC(=O)N2CCCCC2)cc1`, the AC50 under setting [1] was 13 µM [rising, partial curve, poor fit].

Consider `CCCn1cnc2cc(NCc3ccccc3O)ccc21`, for which the AC50 under setting [1] was 20 µM [falling, single point].

For the compound `O=C(CN1C(=O)/C(=C\c2cccc(Cl)c2)Oc2ccccc21)N1CCN(c2ccccn2)CC1`, under setting [1], the AC50 was 4.47 µM [rising, full curve].

As for `Cc1ccc(OC(=O)COc2ccccc2C)c(-n2nc3ccccc3n2)c1`, under setting [1], the AC50 is 3.66 µM [rising, full curve, poor fit].

For the compound `CN1CCC(NC(=O)Nc2cccc(C(F)(F)F)c2)CC1`, the AC50 under setting [1] was 1.58 µM [falling, partial curve, poor fit].

As for `COc1cccc(OCc2cc(C(=O)N(Cc3ccccc3)CC3CC3)no2)c1`, the AC50 under setting [1] is 11.2 µM [falling, single point].

Turning to `O=C(Nc1ccccc1-c1ccccc1)C(=O)Nc1ccccc1-c1ccccc1`, under setting [1], the AC50 was 6.31 µM [rising, single point].

As for `FC(F)(F)c1nc2cc3nc4ccccc4[nH]c3cc2n1`, the AC50 under setting [1] was 12.6 µM [falling, partial curve, poor fit] and the AC50 under setting [2] is 3.55 µM [rising, partial curve, poor fit].

In the case of `CC1CN(c2nc3ccccc3nc2SCC(=O)Nc2ccc(F)cc2)CC(C)O1` (configuration not stated), the AC50 under setting [1] was 0.112 µM [falling, full curve, poor fit].

On to `NS(=O)(=O)c1ccc(NC(=O)COC(=O)c2cc3ccccc3oc2=O)cc1`, for which, under setting [1], the AC50 was 7.94 µM [rising, partial curve, poor fit].

Consider `CC(=O)N/C(=C/c1ccccc1)C(=O)NC(Cc1ccccc1)C(=O)O` (configuration not stated), for which, under setting [1], the concentration at half-maximal activity (AC50) is 6.51 µM [rising, single point].

Take `O=C(NCc1cccnc1)/C(=C/c1ccc(-c2ccc(Cl)cc2)o1)S(=O)(=O)c1ccccc1`: under setting [1], the AC50 is 3.98 µM [falling, partial curve, poor fit].

In the case of `O=C1NC2=C(C(=O)c3ccccc32)C(c2ccccc2)N1` (configuration not stated), the AC50 under setting [1] is 7.94 µM [falling, partial curve, poor fit].

Take `Cc1c(-c2cccc(NC(=O)c3cccs3)c2)nc2ncccn12`: the AC50 under setting [1] was 0.259 µM [falling, full curve, poor fit].

As for `CCC1CCCCN1CCCNC(=O)C(C)n1nc(C)c2sc3ccccc3c2c1=O` (configuration not stated), the AC50 under setting [1] is 35.5 µM [falling, single point].

As for `C=CC[n+]1c(-c2ccc(Cl)cc2Cl)csc1Nc1ccc(NC(C)=O)cc1`, the AC50 under setting [1] is 5.01 µM [rising, single point].

Take `CCCC(=O)Nc1cccc(NC(=S)NC(=O)C(C)Oc2ccc(Cl)cc2Cl)c1` (configuration not stated): the AC50 under setting [1] is 1.46 µM [rising, partial curve, poor fit].

As for `Nc1ccc(C(=O)Nc2ccccc2C(=O)O)cc1`, the AC50 under setting [1] is 5.8 µM [falling, partial curve].

In the case of `CO/N=C(/CNC(=O)c1ccccc1Cl)c1ccc(Cl)cc1`, under setting [1], the AC50 was 1.41 µM [falling, full curve].

As to `N#CC1(Cc2ccc(Cl)cc2)c2ccccc2C=CN1C(=O)c1ccccc1` (configuration not stated), under setting [1], the AC50 was 0.82 µM [rising, full curve, poor fit].

Turning to `COc1cccc(/C=N/Nc2ccccc2C(=O)O)c1O`, the AC50 under setting [1] is 2.24 µM [falling, full curve, poor fit].

Turning to `CC(OC(=O)CSc1ccc([N+](=O)[O-])cc1)C(=O)NCc1ccccc1` (configuration not stated), the AC50 under setting [1] was 13 µM [falling, single point].

Turning to `Cc1cnc(C(=O)OCC(=O)c2cccc3ccccc23)cn1`, under setting [1], the AC50 was 23.1 µM [rising, single point].

On to `CC(C)C(NC(=O)CSCc1ccc([N+](=O)[O-])cc1)C(C)C`, for which the AC50 under setting [1] was 2.31 µM [falling, full curve, poor fit].

For the compound `COC(=O)[C@H](CC(C)C)NC(=O)Nc1ccccc1F`, the half-maximal activity concentration (AC50) under setting [1] was 3.16 µM [rising, single point].

Consider `O=C(CCCn1ncn2c(cc3occc32)c1=O)NCc1ccccc1F`, for which, under setting [1], the AC50 was 7.08 µM [falling, full curve, poor fit].

Regarding `O=C(C[C@@H]1C/C=C/CC[C@H](Cc2ccc(F)cc2)C(=O)OC[C@@H](Cc2ccccc2)NC1=O)N[C@H](CO)Cc1ccccc1`, the AC50 under setting [1] is 13 µM [rising, partial curve, poor fit].

Take `CCN1CCN(Cc2cc(=O)oc3ccc(Cl)cc23)CC1`: under setting [1], the AC50 was 0.501 µM [falling, partial curve, poor fit].

As to `FC(F)(F)c1nc2ccccc2nc1N/N=C/c1ccc(Cl)cc1`, under setting [1], the AC50 is 1.12 µM [rising, full curve].

`COC(=O)c1ccc(NC(=S)NCCc2ccccc2)cc1`: under setting [1], the AC50 is 0.326 µM [falling, full curve].

Regarding `c1ccc(-c2nc(NCc3cccnc3)c3oc4ccccc4c3n2)cc1`, the concentration at half-maximal activity (AC50) under setting [1] was 3.16 µM [falling, full curve].

Take `CN(C)c1nc(NCc2ccccc2)nc(N/N=C/c2cccc(Br)c2)n1`: the AC50 under setting [1] is 0.355 µM [rising, full curve, poor fit].

Consider `CC(=O)Nc1ccc(N2CCC(C)CC2)c([N+](=O)[O-])c1`, for which the AC50 under setting [1] is 15.8 µM [rising, partial curve, poor fit].

As to `O=C(COc1ccc(Cl)cc1Cl)Nc1c(-c2cccs2)nc2ccccn12`, the AC50 under setting [1] was 29.1 µM [rising, single point].

In the case of `O=C(COc1ccccc1Cl)Nc1cc(NC(=O)COc2ccccc2Cl)cc(C(=O)O)c1`, under setting [1], the AC50 was 2.82 µM [rising, partial curve, poor fit].

Regarding `CCOc1cc(C(=O)OC(C)C(=O)Nc2ncc(Cl)cc2Cl)ccc1OCC(=O)N1CCOCC1` (configuration not stated), the AC50 under setting [1] is 4.61 µM [rising, full curve, poor fit].

On to `O=Nc1onc(-c2ccc([N+](=O)[O-])cc2)c1NO`, for which the AC50 under setting [1] was 17.8 µM [rising, single point] and the AC50 under setting [2] was 22.4 µM [falling, single point].

As to `CS(=O)(=O)c1ccc(Cl)c(NC(=O)CSc2n[nH]c(-c3cccs3)n2)c1`, the AC50 under setting [1] was 18.4 µM [rising, single point].

As for `O=c1c2ccccc2ccc2ccccc12`, the AC50 under setting [1] was 7.31 µM [rising, partial curve, poor fit].

`Cc1noc(C)c1COc1ccc(C(=O)OCC(=O)Nc2ccc3c(c2)OCO3)cc1`: the AC50 under setting [1] was 5.62 µM [rising, full curve, poor fit].
